PubChem BioAssay AID1259327 | Drosophila RNAi Screening Center – 2017

Test: 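Data from controls in screens of zinc and manganese toxicity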
System: Drosophila S2R+ cells
Reagent: long dsRNA against Drosophila genes
Timing: 5 days (water added on day 4, read one day later)
Conditions: water added as vehicle, no metal, one day before read-out
Measured: 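Total ATP measured by luciferase light, scaled to plate mean, duplicates averaged, then z-scored across plates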
Reading the numbers: ATP z-score: higher = more total ATP than typical wells; ATP luminescence: higher = more total ATP
Rule for the call: 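Called active when the ATP z-score exceeds 1.5 or falls below -1.5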
Meaning of the calls: active = hit: ATP up or down; inactive = no clear ATP change
In all, the deposit lists about 3,100 reagents; shown is an unselected part. 378 of them (12%) count as active. 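Hits include both directions; z-score sign shows ATP rise or fall; raw luminescence values are not plate-normalised.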 The record does not give: the amount of reagent.

ATP6AP2 (ATPase H+ transporting accessory protein 2) [DRSC16420]
- ATP z-score, duplicate mean: -0.178
- ATP luminescence, replicate 1 (RLU): 2.84e5
- ATP luminescence, replicate 2 (RLU): 7.60e5
- outcome: inactive

ATP6AP2 (ATPase H+ transporting accessory protein 2) [DRSC39882]
- ATP z-score, duplicate mean: -0.0639
- ATP luminescence, replicate 1 (RLU): 5.68e5
- ATP luminescence, replicate 2 (RLU): 5.91e5
- outcome: inactive

Pis (Phosphatidylinositol synthase) [DRSC20178]
- ATP z-score, duplicate mean: 2.04
- ATP luminescence, replicate 1 (RLU): 8.31e5
- ATP luminescence, replicate 2 (RLU): 9.70e5
- outcome: active

Pis (Phosphatidylinositol synthase) [DRSC29976]
- ATP z-score, duplicate mean: -0.65
- ATP luminescence, replicate 1 (RLU): 4.85e5
- ATP luminescence, replicate 2 (RLU): 5.65e5
- outcome: inactive

ste24a (prenyl protease type I) [DRSC07314]
- ATP z-score, duplicate mean: 0.382
- ATP luminescence, replicate 1 (RLU): 7.30e5
- ATP luminescence, replicate 2 (RLU): 8.15e5
- outcome: inactive

ste24a (prenyl protease type I) [DRSC26491]
- ATP z-score, duplicate mean: 0.913
- ATP luminescence, replicate 1 (RLU): 7.49e5
- ATP luminescence, replicate 2 (RLU): 1.07e6
- outcome: inactive

CG3156 [DRSC27939]
- ATP z-score, duplicate mean: 0.401
- ATP luminescence, replicate 1 (RLU): 7.60e5
- ATP luminescence, replicate 2 (RLU): 9.85e5
- outcome: inactive

CG3156 [DRSC39874]
- ATP z-score, duplicate mean: -2.66
- ATP luminescence, replicate 1 (RLU): 3.01e5
- ATP luminescence, replicate 2 (RLU): 4.19e5
- outcome: active

nAChRalpha5 (nicotinic Acetylcholine Receptor alpha5) [DRSC01946]
- ATP z-score, duplicate mean: -1.04
- ATP luminescence, replicate 1 (RLU): 6.73e5
- ATP luminescence, replicate 2 (RLU): 5.61e5
- outcome: inactive

Gr92a (Gustatory receptor 92a) [DRSC21631]
- ATP z-score, duplicate mean: 0.447
- ATP luminescence, replicate 1 (RLU): 5.31e5
- ATP luminescence, replicate 2 (RLU): 7.06e5
- outcome: inactive

Gr92a (Gustatory receptor 92a) [DRSC39582]
- ATP z-score, duplicate mean: 0.975
- ATP luminescence, replicate 1 (RLU): 4.81e5
- ATP luminescence, replicate 2 (RLU): 5.84e5
- outcome: inactive

Scgdelta (Sarcoglycan delta) [DRSC18544]
- ATP z-score, duplicate mean: -0.556
- ATP luminescence, replicate 1 (RLU): 5.80e5
- ATP luminescence, replicate 2 (RLU): 6.74e5
- outcome: inactive

Grik [DRSC15846]
- ATP z-score, duplicate mean: 0.168
- ATP luminescence, replicate 1 (RLU): 7.10e5
- ATP luminescence, replicate 2 (RLU): 7.36e5
- outcome: inactive

Grik [DRSC15847]
- ATP z-score, duplicate mean: -0.133
- ATP luminescence, replicate 1 (RLU): 2.60e5
- ATP luminescence, replicate 2 (RLU): 8.33e5
- outcome: inactive

Grik [DRSC26067]
- ATP z-score, duplicate mean: -0.612
- ATP luminescence, replicate 1 (RLU): 7.64e5
- ATP luminescence, replicate 2 (RLU): 7.85e5
- outcome: inactive

Gr93b (Gustatory receptor 93b) [DRSC22063]
- ATP z-score, duplicate mean: -1.94
- ATP luminescence, replicate 1 (RLU): 4.53e5
- ATP luminescence, replicate 2 (RLU): 3.77e5
- outcome: active

Gr93b (Gustatory receptor 93b) [DRSC39438]
- ATP z-score, duplicate mean: 2.14
- ATP luminescence, replicate 1 (RLU): 6.03e5
- ATP luminescence, replicate 2 (RLU): 5.86e5
- outcome: active

CG17167 [DRSC20902]
- ATP z-score, duplicate mean: 0.339
- ATP luminescence, replicate 1 (RLU): 8.09e5
- ATP luminescence, replicate 2 (RLU): 7.47e5
- outcome: inactive

CG17167 [DRSC20903]
- ATP z-score, duplicate mean: -0.774
- ATP luminescence, replicate 1 (RLU): 6.83e5
- ATP luminescence, replicate 2 (RLU): 6.33e5
- outcome: inactive

btl (breathless) [DRSC11331]
- ATP z-score, duplicate mean: -0.347
- ATP luminescence, replicate 1 (RLU): 8.15e5
- ATP luminescence, replicate 2 (RLU): 8.83e5
- outcome: inactive

btl (breathless) [DRSC36653]
- ATP z-score, duplicate mean: -0.747
- ATP luminescence, replicate 1 (RLU): 4.81e5
- ATP luminescence, replicate 2 (RLU): 5.52e5
- outcome: inactive

btl (breathless) [DRSC36654]
- ATP z-score, duplicate mean: -0.511
- ATP luminescence, replicate 1 (RLU): 4.78e5
- ATP luminescence, replicate 2 (RLU): 5.96e5
- outcome: inactive

ppk10 (pickpocket 10) [DRSC01123]
- ATP z-score, duplicate mean: -0.267
- ATP luminescence, replicate 1 (RLU): 6.79e5
- ATP luminescence, replicate 2 (RLU): 7.50e5
- outcome: inactive

MFS16 (Major Facilitator Superfamily Transporter 16) [DRSC04051]
- ATP z-score, duplicate mean: 0.937
- ATP luminescence, replicate 1 (RLU): 9.04e5
- ATP luminescence, replicate 2 (RLU): 7.49e5
- outcome: inactive

MFS16 (Major Facilitator Superfamily Transporter 16) [DRSC26536]
- ATP z-score, duplicate mean: -0.853
- ATP luminescence, replicate 1 (RLU): 9.46e5
- ATP luminescence, replicate 2 (RLU): 1.16e6
- outcome: inactive

Icmt (Isoprenylcysteine carboxyl methyltransferase) [DRSC09834]
- ATP z-score, duplicate mean: -0.559
- ATP luminescence, replicate 1 (RLU): 8.48e5
- ATP luminescence, replicate 2 (RLU): 7.98e5
- outcome: inactive

Icmt (Isoprenylcysteine carboxyl methyltransferase) [DRSC39884]
- ATP z-score, duplicate mean: -1.65
- ATP luminescence, replicate 1 (RLU): 3.82e5
- ATP luminescence, replicate 2 (RLU): 5.11e5
- outcome: active

CG6659 [DRSC20003]
- ATP z-score, duplicate mean: 0.0655
- ATP luminescence, replicate 1 (RLU): 7.29e5
- ATP luminescence, replicate 2 (RLU): 6.96e5
- outcome: inactive

CG6659 [DRSC39777]
- ATP z-score, duplicate mean: -0.306
- ATP luminescence, replicate 1 (RLU): 4.37e5
- ATP luminescence, replicate 2 (RLU): 4.79e5
- outcome: inactive

G6P (Glucose-6-Phosphatase) [DRSC00414]
- ATP z-score, duplicate mean: -0.276
- ATP luminescence, replicate 1 (RLU): 6.50e5
- ATP luminescence, replicate 2 (RLU): 7.04e5
- outcome: inactive

G6P (Glucose-6-Phosphatase) [DRSC27121]
- ATP z-score, duplicate mean: 0.626
- ATP luminescence, replicate 1 (RLU): 1.05e6
- ATP luminescence, replicate 2 (RLU): 1.19e6
- outcome: inactive
